Consider one substance from article PMC9135340.

Sequences of proteins named here, by UniProt entry; tags and fusion partners are left off.
UniProt Q2GI62: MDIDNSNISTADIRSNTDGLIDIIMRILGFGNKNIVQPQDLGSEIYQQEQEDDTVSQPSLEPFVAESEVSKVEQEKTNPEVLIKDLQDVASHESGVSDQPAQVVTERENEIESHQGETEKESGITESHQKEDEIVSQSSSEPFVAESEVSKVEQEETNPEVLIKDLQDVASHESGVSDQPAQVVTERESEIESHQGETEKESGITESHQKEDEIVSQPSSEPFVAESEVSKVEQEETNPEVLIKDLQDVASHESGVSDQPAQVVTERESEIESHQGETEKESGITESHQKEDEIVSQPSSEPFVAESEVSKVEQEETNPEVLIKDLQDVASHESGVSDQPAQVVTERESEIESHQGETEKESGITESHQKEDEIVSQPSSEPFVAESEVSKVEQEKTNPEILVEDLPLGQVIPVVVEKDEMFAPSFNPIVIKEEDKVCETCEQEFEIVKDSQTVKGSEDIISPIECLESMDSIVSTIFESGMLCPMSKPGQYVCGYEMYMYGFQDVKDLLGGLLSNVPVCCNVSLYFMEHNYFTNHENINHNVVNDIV

The test concerns the target T1, Patched-2 (PTCH2), endogenous in THP-1 cells (human (endogenous in THP-1)) (UniProt Q9Y6C5).
T1 sequence: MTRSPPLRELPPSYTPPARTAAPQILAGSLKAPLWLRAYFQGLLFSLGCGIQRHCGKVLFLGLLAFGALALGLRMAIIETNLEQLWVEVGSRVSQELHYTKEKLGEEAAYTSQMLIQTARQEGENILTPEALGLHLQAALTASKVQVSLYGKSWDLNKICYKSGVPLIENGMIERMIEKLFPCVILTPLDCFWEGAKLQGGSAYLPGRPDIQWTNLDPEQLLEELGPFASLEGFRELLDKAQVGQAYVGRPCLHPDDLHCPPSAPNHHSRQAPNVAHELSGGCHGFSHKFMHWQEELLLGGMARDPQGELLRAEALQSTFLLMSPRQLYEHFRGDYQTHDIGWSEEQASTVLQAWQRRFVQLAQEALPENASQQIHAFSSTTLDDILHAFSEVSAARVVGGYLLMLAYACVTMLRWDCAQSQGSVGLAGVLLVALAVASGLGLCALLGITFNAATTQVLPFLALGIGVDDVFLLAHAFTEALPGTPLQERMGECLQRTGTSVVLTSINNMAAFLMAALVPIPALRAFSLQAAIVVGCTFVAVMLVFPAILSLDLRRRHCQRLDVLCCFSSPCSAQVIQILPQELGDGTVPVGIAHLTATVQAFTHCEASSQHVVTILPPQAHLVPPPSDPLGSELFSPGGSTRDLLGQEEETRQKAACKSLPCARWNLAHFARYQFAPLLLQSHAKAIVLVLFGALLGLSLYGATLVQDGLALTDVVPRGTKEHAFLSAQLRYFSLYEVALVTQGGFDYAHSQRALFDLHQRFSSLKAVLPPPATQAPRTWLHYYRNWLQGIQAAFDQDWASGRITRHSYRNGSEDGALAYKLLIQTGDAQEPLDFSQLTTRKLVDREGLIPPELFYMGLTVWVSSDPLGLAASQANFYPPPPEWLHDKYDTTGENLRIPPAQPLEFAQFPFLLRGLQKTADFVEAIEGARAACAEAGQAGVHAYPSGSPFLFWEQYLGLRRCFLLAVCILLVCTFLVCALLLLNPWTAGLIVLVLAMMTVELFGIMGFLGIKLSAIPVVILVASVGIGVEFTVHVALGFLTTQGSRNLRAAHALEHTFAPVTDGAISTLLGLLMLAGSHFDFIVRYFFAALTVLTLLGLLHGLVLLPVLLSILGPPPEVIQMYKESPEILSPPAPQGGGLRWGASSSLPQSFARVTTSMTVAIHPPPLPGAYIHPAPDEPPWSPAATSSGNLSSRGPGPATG
Description: co-IP; Pierce Crosslink IP Kit; lysate of THP-1 cells infected with E. chaffeensis (MOI 100, 24 h); IP with TRP120-I1 or PTCH2 antibody (reverse), blot for TRP120 or PTCH2; normal rabbit IgG as control.

These are yes or no findings as the source states them, for the method shown. Binding seen in cells or lysates may run through a third protein. Some binding calls cover weakened binding; strength is not graded here.

Consider “E. chaffeensis TRP120 (native, in infected THP-1 cells) (from UniProt Q2GI62 1-548)”, for which the binding result is given as “binds”.
